Here are results for 14 molecules from patent US20240101635A1 (AKSTON BIOSCIENCES, published 2024).

Chains of the proteins cited; added tags and fusions are not shown. Residues count along the entry.
UniProt P06213, residues 28-1382: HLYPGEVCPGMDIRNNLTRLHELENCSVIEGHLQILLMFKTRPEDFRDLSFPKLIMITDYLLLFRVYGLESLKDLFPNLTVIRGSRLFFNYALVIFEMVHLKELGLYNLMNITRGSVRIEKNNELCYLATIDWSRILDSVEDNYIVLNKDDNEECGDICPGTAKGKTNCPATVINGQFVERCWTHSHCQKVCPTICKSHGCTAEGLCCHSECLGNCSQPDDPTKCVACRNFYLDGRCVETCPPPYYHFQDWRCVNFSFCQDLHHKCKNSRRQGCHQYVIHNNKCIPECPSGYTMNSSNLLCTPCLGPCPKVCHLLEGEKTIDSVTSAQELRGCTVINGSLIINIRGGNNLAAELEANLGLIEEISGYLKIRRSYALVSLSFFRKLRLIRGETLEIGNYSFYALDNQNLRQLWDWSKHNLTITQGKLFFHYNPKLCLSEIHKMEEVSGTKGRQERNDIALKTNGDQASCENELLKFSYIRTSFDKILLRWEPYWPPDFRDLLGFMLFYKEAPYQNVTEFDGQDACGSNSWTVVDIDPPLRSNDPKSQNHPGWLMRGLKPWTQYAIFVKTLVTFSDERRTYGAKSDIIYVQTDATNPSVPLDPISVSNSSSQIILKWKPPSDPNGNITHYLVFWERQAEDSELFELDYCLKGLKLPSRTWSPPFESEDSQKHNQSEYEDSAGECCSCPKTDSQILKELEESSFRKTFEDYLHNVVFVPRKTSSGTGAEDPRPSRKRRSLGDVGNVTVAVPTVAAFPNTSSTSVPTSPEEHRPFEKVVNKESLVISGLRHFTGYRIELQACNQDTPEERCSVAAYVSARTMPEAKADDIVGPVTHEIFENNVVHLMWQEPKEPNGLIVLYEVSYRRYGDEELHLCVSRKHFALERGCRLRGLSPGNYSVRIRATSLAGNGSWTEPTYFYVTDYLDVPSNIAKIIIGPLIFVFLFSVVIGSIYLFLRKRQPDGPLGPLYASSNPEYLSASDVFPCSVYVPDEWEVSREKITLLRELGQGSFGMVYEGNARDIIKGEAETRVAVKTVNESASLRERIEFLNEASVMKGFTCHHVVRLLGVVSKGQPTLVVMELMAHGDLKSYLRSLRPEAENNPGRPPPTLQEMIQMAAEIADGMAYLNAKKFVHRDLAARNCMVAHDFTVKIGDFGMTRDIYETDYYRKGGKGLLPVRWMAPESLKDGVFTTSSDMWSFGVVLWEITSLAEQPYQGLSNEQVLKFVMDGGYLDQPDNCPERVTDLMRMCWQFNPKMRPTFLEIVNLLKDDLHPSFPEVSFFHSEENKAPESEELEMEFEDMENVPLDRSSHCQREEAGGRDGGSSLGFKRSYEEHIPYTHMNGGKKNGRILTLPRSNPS

Substitutions are numbered along the chain they refer to. These are yes or no findings as the source states them, for the method shown. Some entries that bind do so weakly or less than the wild type. Where a sequence is shown, tags or fusion partners need not be part of it.

In this assay the target is T1, human insulin receptor (human, UniProt P06213 28-1382).
T1 construct: whole, on cells; Endogenous receptor on IM-9 cells; also called IR
Nature of the assay: competition with biotinylated RHI on IM-9 cells, flow cytometry, 4 C. In general terms: In flow cytometry, cells or beads pass a laser one at a time.

B1: insulin-Fc fusion protein of SEQ ID NO: 114 (Fc fusion)
chain: FVNQHLCGSHLVEALALVCGERGFFYTDPAGGGPRRGIVEQCCASVCSLYQLEHYCGGGGAGGGGGEGPKCPVPEIPGAPSVFIFPPKPKDTLSISRTPEVTCLVVDLGPDDSNVQITWFVDNTEMHTAKTRPREEQFNSTYRVVSVLPILHQDWLKGKEFKCKVNSKSLPSAMERTISKAKGQPHEPQVYVLPPTQEELSENKVSVTCLIKGFHPPDIAVEWEITGQPEPENNYQTTPPQLDSDGTYFLYSRLSVDRSHWQRGNTYTCSVSHEALHSHHTQKSLTQSP
notes: homodimer
For the molecule B1, the binding entry is “binds”.

B2: insulin-Fc fusion protein of SEQ ID NO: 116 (Fc fusion)
chain: FVNQHLCGSHLVEALALVCGERGFFYTDPAGGGPRRGIVEQCCASVCSLYQLEHYCGGGGAGGGGGEGPKCPVPEIPGAPSVFIFPPKPKDTLSISRTPEVTCLVVDLGPDDSNVQITWFVDNTEMHTAKTRPREEQFSSTYRVVSVLPILHQDWLKGKEFKCKVNSKSLPSAMERTISKAKGQPHEPQVYVLPPTQEELSENKVSVTCLIKGFHPPDIAVEWEITGQPEPENNYQTTPPQLDSDGTYFLYSRLSVDRSHWQRGNTYTCSVSHEALHSHHTQKSLTQSPG
notes: homodimer
Regarding B2, the binding entry is given as “binds”.

B3: insulin-Fc fusion protein of SEQ ID NO: 92 (Fc fusion)
chain: FVNQHLCGSHLVEALELVCGERGFHYGGGGGGSGGGGGIVEQCCTSTCSLDQLENYCNHGGGGQGGGGQGGGGQGGGGGDCPKCPAPEMLGGPSVFIFPPKPKDTLLIARTPEVTCVVVDLDPEDPEVQISWFVDGKQMQTAKTQPREEQFNGTYRVVSVLPIGHQDWLKGKQFTCKVNNKALPSPIERTISKARGQAHQPSVYVLPPSREELSKNTVSLTCLIKDFFPPDIDVEWQSNGQQEPESKYRTTPPQLDEDGSYFLYSKLSVDKSRWQRGDTFICAVMHEALHNHYTQESLSHSPG
As for B3, the binding entry is listed as “binds”.

B4: insulin-Fc fusion protein of SEQ ID NO: 34 (Fc fusion)
chain: B3 chain with H59G
On to B4, for which the binding result is listed as “binds”.

B5: insulin-Fc fusion protein of SEQ ID NO: 86 (Fc fusion)
chain: FVNQHLCGSHLVEALALVCGERGFFYTDPTGGGPRRGIVEQCCTSICSLYQLENYCGGGGGQGGGGQGGGGQGGGGGDCPKCPAPEMLGGPSVFIFPPKPKDTLLIARTPEVTCVVVDLDPEDPEVQISWFVDGKQMQTAKTQPREEQFSGTYRVVSVLPIGHQDWLKGKQFTCKVNNKALPSPIERTISKARGQAHQPSVYVLPPSREELSKNTVSLTCLIKDFFPPDIDVEWQSNGQQEPESKYRTTPPQLDEDGSYFLYSKLSVDKSRWQRGDTFICAVMHEALHNHYTQESLSHSPG
With B5, the binding result was “binds”.

B6: insulin-Fc fusion protein of SEQ ID NO: 122 (Fc fusion)
chain: FVNQHLCGSHLVEALELVCGERGFHYGGGGGGSGGGGGIVEQCCTSTCSLDQLENYCGGGGGQGGGGQGGGGQGGGGGGEGPKCPVPEIPGAPSVFIFPPKPKDTLSISRTPEVTCLVVDLGPDDSNVQITWFVDNTEMHTAKTRPREEQFNSTYRVVSVLPILHQDWLKGKEFKCKVNSKSLPSAMERTISKAKGQPHEPQVYVLPPTQEELSENKVSVTCLIKGFHPPDIAVEWEITGQPEPENNYQTTPPQLDSDGTYFLYSRLSVDRSHWQRGNTYTCSVSHEALHSHHTQKSLTQSPG
notes: homodimer
As for B6, the binding result is listed as “binds”.

B7: insulin-Fc fusion protein of SEQ ID NO: 80 (Fc fusion)
chain: FVNQHLCGSHLVEALALVCGERGFFYTDPTGGGGGGSGGGGGIVEQCCTSICSLYQLENYCGGGGAGGGGDCPKCPAPEMLGGPSVFIFPPKPKDTLLIARTPEVTCVVVDLDPEDPEVQISWFVDGKQMQTAKTQPREEQFSGTYRVVSVLPIGHQDWLKGKQFTCKVNNKALPSPIERTISKARGQAHQPSVYVLPPSREELSKNTVSLTCLIKDFFPPDIDVEWQSNGQQEPESKYRTTPPQLDEDGSYFLYSKLSVDKSRWQRGDTFICAVMHEALHNHYTQESLSHSPG
As to B7, the binding entry is “binds”.

B8: insulin-Fc fusion protein of SEQ ID NO: 68 (Fc fusion)
chain: FVNQHLCGSHLVQALYLVCGERGFFYTDPTGGGPRRGIVEQCCTSICSLYQLENYCGGGGAGGGGDCPKCPAPEMLGGPSVFIFPPKPKDTLLIARTPEVTCVVVDLDPEDPEVQISWFVDGKQMQTAKTQPREEQFSGTYRVVSVLPIGHQDWLKGKQFTCKVNNKALPSPIERTISKARGQAHQPSVYVLPPSREELSKNTVSLTCLIKDFFPPDIDVEWQSNGQQEPESKYRTTPPQLDEDGSYFLYSKLSVDKSRWQRGDTFICAVMHEALHNHYTQESLSHSPG
In the case of B8, the binding result is reported as “binds”.

B9: insulin-Fc fusion protein of SEQ ID NO: 70 (Fc fusion)
chain: B8 chain with H10E, Q13E, Y16A
As for B9, the binding entry is “binds”.

B10: insulin-Fc fusion protein of SEQ ID NO: 84 (Fc fusion)
chain: B8 chain with Q13E, Y16A, D28P, P29G, T30G, P34G, R35G, R36G
As for B10, the binding entry is listed as “binds”.

B11: insulin-Fc fusion protein of SEQ ID NO: 88 (Fc fusion)
chain: B8 chain with Q13E, Y16A, D28Q, P29G, T30G, P34G, R35G, R36G
As for B11, the binding result is on record as “binds”.

B12: insulin-Fc fusion protein of SEQ ID NO: 74 (Fc fusion)
chain: B8 chain with Q13E, Y16A, F25Y
With B12, the binding entry is listed as “binds”.

B13: insulin-Fc fusion protein of SEQ ID NO: 32 (Fc fusion)
chain: FVNQHLCGSHLVEALELVCGERGFHYGGGGGGSGGGGGIVEQCCTSTCSLDQLENYCGGGGGQGGGGQGGGGQGGGGGDCPKCPAPEMLGGPSVFIFPPKPKDTLLIARTPEVTCVVVDLDPEDPEVQISWFVDGKQMQTAKTQPREEQFNGTYRVVSVLPIGHQDWLKGKQFTCKVNNKALPSPIERTISKARGQAHQPSVYVLPPSREELSKNTVSLTCLIKDFFPPDIDVEWQSNGQQEPESKYRTTPPQLDEDGSYFLYSKLSVDKSRWQRGDTFICAVMHEALHNHYTQESLSHSPG
notes: homodimer; also called 218d
In the case of B13, the binding result was “binds”.

B14: insulin-Fc fusion protein of SEQ ID NO: 94 (Fc fusion)
chain: B13 chain with H25F
In the case of B14, the binding entry was “binds”.
